Test results published in article PMC11884789.
These are yes or no findings as the source states them, for the method shown. In cells and extracts the contact can be indirect. Some results given as binding are weak or reduced against the parent protein; the word gives no strength.

The chains behind the UniProt entries cited, without tags or fusion partners.
UniProt Q08211: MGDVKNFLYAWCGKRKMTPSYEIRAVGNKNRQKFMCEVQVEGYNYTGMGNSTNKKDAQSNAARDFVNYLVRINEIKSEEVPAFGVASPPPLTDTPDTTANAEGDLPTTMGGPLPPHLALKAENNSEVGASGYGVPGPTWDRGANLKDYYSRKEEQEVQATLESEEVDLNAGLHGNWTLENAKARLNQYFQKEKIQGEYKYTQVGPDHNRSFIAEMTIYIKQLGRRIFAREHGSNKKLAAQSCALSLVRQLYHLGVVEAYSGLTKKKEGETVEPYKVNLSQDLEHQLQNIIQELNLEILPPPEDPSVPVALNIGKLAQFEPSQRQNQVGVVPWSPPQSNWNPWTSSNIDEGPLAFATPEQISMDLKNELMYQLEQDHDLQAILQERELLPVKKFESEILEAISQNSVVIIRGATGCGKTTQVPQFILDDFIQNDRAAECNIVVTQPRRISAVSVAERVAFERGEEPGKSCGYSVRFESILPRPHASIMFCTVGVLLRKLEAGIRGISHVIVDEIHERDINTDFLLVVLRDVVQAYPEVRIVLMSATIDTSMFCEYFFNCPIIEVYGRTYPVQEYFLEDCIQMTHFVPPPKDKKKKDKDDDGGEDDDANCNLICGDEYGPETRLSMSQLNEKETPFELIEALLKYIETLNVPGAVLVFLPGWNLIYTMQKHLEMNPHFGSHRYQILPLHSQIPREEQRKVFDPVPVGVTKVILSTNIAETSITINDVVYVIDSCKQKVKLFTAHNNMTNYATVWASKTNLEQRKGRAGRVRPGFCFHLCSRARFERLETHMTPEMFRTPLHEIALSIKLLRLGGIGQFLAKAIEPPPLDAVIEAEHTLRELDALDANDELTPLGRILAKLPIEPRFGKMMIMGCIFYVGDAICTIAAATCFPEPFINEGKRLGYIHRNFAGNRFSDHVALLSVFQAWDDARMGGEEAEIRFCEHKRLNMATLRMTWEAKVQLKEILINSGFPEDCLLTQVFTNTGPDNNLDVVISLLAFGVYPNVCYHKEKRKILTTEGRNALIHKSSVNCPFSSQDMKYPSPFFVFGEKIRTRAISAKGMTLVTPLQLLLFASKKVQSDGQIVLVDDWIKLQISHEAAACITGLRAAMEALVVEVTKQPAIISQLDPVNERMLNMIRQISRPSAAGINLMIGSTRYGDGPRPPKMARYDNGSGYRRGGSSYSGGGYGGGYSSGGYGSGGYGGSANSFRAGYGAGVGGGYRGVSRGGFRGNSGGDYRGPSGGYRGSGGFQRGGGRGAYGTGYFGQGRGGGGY
UniProt Q28141: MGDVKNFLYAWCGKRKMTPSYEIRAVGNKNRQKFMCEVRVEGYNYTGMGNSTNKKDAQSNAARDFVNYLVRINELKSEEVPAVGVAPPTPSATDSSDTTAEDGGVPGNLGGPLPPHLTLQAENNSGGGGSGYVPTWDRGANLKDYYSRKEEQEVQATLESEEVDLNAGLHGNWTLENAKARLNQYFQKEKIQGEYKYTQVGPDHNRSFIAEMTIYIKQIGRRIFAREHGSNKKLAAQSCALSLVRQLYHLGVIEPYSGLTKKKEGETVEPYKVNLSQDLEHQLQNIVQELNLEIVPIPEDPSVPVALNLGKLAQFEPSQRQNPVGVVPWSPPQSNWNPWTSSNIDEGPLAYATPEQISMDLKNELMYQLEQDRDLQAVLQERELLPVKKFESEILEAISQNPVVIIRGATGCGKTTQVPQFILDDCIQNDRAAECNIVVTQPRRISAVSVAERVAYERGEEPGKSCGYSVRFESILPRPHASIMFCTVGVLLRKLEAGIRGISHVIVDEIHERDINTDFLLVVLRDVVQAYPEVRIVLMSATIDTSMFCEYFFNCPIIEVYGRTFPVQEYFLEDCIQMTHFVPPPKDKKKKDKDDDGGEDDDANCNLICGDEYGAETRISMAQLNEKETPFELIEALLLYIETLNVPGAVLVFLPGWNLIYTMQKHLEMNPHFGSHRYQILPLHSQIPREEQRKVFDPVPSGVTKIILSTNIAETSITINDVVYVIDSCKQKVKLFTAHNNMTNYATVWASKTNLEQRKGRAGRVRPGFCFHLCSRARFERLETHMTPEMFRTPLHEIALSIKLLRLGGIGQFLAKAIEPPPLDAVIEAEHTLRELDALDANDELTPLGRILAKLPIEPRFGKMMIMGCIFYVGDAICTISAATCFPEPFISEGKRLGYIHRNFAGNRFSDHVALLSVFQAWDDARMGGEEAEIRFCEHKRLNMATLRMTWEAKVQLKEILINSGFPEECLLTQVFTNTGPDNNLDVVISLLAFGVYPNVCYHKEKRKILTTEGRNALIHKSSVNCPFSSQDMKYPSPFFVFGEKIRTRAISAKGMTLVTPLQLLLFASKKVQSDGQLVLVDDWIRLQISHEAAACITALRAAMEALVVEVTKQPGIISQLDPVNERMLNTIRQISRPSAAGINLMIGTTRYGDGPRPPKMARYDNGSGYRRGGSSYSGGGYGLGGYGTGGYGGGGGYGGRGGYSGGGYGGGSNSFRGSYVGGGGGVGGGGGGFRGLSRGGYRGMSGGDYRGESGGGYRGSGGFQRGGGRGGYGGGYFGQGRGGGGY
UniProt F1N4J1: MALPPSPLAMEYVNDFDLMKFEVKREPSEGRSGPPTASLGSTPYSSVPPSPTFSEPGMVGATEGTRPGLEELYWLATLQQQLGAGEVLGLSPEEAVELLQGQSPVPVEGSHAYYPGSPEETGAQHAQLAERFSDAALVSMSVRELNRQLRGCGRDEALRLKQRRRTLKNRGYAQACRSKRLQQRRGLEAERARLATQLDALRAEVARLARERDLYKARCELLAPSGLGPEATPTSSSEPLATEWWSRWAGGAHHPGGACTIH
UniProt P54845: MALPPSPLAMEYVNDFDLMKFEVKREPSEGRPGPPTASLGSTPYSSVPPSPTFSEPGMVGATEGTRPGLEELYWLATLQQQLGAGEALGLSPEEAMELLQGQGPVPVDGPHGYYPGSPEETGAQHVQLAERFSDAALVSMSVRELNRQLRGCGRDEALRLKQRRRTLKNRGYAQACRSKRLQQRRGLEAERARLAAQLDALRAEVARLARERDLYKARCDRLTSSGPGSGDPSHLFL
UniProt P54846: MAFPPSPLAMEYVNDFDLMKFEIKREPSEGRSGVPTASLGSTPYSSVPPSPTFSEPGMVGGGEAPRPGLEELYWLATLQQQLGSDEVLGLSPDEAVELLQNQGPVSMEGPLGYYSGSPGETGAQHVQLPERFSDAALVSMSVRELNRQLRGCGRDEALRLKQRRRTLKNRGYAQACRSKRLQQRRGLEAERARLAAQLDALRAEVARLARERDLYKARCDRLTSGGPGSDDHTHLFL
UniProt P17844: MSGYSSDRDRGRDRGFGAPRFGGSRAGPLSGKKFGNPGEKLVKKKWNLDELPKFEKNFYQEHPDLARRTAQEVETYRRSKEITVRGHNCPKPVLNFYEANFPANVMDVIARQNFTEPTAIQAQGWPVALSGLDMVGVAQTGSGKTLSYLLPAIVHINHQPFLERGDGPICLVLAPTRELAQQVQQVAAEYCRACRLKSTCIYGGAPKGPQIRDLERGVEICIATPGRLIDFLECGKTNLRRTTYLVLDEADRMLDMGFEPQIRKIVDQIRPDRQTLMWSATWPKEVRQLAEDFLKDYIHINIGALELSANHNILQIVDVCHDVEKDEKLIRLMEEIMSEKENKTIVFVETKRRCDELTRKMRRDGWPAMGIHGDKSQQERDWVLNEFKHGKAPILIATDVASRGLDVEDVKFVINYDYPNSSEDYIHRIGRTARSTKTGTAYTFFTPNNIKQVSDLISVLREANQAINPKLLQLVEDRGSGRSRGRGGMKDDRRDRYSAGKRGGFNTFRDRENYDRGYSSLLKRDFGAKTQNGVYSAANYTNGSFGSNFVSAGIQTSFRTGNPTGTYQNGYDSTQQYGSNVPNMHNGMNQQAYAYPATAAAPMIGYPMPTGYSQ
UniProt A0A3Q1M155: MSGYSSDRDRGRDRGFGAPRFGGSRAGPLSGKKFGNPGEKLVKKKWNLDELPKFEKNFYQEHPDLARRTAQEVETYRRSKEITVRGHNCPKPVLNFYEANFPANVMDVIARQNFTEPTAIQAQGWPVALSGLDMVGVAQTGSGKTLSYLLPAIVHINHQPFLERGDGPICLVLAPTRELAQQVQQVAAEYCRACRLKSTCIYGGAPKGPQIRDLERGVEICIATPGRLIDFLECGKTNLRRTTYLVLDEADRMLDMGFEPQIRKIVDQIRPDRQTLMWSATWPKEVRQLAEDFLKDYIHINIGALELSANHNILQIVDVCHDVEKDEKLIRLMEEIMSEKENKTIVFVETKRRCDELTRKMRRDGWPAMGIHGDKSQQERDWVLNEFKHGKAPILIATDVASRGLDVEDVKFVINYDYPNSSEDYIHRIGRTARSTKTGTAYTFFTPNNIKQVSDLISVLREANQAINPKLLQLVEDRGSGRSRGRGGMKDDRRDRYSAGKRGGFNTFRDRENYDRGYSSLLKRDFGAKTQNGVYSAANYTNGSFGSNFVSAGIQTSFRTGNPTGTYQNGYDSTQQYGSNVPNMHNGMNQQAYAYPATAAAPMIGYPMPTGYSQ
UniProt O70133: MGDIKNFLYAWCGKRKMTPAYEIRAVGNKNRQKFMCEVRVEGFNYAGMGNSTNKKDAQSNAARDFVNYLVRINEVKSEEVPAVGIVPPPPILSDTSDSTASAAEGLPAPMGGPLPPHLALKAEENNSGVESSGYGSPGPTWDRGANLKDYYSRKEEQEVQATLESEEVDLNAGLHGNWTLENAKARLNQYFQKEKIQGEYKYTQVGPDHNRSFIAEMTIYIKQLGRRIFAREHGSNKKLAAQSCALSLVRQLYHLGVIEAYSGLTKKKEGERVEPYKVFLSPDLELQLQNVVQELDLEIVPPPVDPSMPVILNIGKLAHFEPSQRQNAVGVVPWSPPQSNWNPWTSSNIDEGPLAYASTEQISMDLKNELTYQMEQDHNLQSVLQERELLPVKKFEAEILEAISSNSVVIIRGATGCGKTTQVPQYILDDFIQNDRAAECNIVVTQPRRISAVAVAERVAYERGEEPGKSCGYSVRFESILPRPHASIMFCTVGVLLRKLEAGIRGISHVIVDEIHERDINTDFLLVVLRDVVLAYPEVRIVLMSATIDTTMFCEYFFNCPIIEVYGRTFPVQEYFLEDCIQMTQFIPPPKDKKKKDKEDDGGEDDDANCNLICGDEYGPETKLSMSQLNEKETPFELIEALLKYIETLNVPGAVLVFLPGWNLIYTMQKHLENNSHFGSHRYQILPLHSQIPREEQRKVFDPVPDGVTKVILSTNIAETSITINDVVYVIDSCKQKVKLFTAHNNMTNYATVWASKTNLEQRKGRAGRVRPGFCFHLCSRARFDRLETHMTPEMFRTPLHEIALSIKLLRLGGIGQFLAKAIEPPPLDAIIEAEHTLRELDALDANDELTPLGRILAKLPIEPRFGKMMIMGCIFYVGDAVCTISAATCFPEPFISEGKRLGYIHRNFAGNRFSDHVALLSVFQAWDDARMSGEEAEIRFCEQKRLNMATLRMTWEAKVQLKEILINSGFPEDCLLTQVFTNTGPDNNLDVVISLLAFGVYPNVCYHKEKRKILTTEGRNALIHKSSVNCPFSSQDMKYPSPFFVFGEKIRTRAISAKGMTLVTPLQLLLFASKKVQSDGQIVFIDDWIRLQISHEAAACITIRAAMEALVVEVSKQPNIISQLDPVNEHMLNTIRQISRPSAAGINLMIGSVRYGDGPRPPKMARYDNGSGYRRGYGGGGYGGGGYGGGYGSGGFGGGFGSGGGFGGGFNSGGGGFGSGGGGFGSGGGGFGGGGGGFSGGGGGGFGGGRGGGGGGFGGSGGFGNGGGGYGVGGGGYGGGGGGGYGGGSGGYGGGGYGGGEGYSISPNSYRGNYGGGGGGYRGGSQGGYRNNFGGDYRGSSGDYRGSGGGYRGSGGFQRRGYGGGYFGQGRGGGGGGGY

Experiments:
[1] = molecular target: DHX9, HEK293 cells (human (endogenous in HEK293)) (UniProt Q08211); test: co-IP; HEK293 cells overexpressing NRL, lysed in 40 mM Tris-HCl pH 8.0, 150 mM NaCl, 2 mM EDTA, 0.2% NP-40; lysates treated 30 min at 37°C with RNaseOUT (control), RNase A, RNase H or DNase I; IP with NRL, DHX9 or DDX5 antibody on Dynabeads Protein A overnight at 4°C; immunoblot
[2] = molecular target: DHX9, bovine retina (bovine (endogenous in bovine retina)) (UniProt Q28141); test: co-IP; nuclear fraction of bovine retina in co-IP binding buffer, sonicated; lysates treated 30 min at 37°C with RNaseOUT (control), RNase A, RNase H or DNase I; IP with NRL, DHX9 or DDX5 antibody on Dynabeads Protein A overnight at 4°C; immunoblot
[3] = molecular target: NRL, endogenous in bovine retina (bovine (endogenous in bovine retina)) (UniProt F1N4J1); test: as above
[4] = molecular target: human NRL fused to GST (human) (UniProt P54845); test: pull-down; GST-NRL on Glutathione Sepharose beads incubated 2 hr at 4°C with nuclear fraction from bovine retina with 25 U of benzonase (digests all nucleic acids); immunoblot; only the target purified
[5] = molecular target: human NRL fused to GST (human) (UniProt P54845); test: pull-down; GST-NRL on Glutathione Sepharose beads incubated 2 hr at 4°C with nuclear fraction from bovine retina, without benzonase; washed in PBS with 1% Triton X-100; immunoblot; purified GST as control; only the target purified
[6] = molecular target: NRL, endogenous in mouse retina (mouse (endogenous in mouse retina)) (UniProt P54846); test: proximity ligation; Duolink PLA on sections of adult mouse retina with anti-NRL and anti-DHX9 or anti-DDX5 antibodies; Nrl KO retina as control

| binding [1] | binding [2] | binding [3] | Substance | also measured |
| --- | --- | --- | --- | --- |
| binds |  |  | DDX5, HEK293 cells (from UniProt P17844 1-614) |  |
|  | binds | binds | DDX5, bovine retina (from UniProt A0A3Q1M155 1-614) |  |
|  |  | binds | DHX9, bovine retina (from UniProt Q28141 1-1287) | binding [4]: binds; binding [5]: binds |
|  |  |  | DHX9, mouse retina (from UniProt O70133 1-1380) | binding [6]: binds |
|  | binds |  | NRL, endogenous in bovine retina (from UniProt F1N4J1 1-262) |  |
| binds |  |  | Xpress-tagged human NRL (from UniProt P54845 1-237) |  |
